Measurements reported in PubChem BioAssay AID1224830 (NIAID, 2016)

- Assay: 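Host factors that control LPS-induced TNF expression in human macrophages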 (primary screen)
- System: human THP-1 monocytic leukaemia cells, TNF dual-luciferase reporter clone, PMA-differentiated to macrophage-like cells
- Knock-down reagent: siRNA pool against human genes, 50 nM
- Time to read-out: LPS for 4 h, given about 3 days after siRNA transfection
- Challenge: bacterial LPS (TLR4 ligand), 10 ng/ml
- Read-out: 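Ratio of firefly to renilla light, scaled to the plate median and expressed as a robust z-score per replicate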
- Scale: TNF reporter robust z-score: higher = stronger TNF reporter response to LPS
- Active means: 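Each well counts as active if its z-score is over 2.8 or under -1.5; controls are left without a call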
Here is an unselected part of about 18,000 reagents tested. Of all reagents, about 2,900 (16%) are marked active. 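Calls are made per well; low scores hint the gene aids the LPS response, high scores that it dampens it.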 Repeated entries: four replicate wells of each siRNA pool.

gene	PubChem SID	TNF reporter robust z-score	Outcome
RAB3D (RAB3D, member RAS oncogene family)	SID315453372	0.61	inactive
RAB3D (RAB3D, member RAS oncogene family)	SID315453372	1.51	inactive
RAB3D (RAB3D, member RAS oncogene family)	SID315453372	1.5	inactive
RAB3D (RAB3D, member RAS oncogene family)	SID315453372	0.52	inactive
OR8D1 (olfactory receptor family 8 subfamily D member 1)	SID315463639	-0.35	inactive
OR8D1 (olfactory receptor family 8 subfamily D member 1)	SID315463639	0.08	inactive
OR8D1 (olfactory receptor family 8 subfamily D member 1)	SID315463639	1.72	inactive
OR8D1 (olfactory receptor family 8 subfamily D member 1)	SID315463639	1.37	inactive
SSPN (sarcospan)	SID315452393	-0.98	inactive
SSPN (sarcospan)	SID315452393	-0.65	inactive
SSPN (sarcospan)	SID315452393	-0.49	inactive
SSPN (sarcospan)	SID315452393	0.22	inactive
GABRA4 (gamma-aminobutyric acid type A receptor subunit alpha4)	SID315448799	-0.15	inactive
GABRA4 (gamma-aminobutyric acid type A receptor subunit alpha4)	SID315448799	-0.34	inactive
GABRA4 (gamma-aminobutyric acid type A receptor subunit alpha4)	SID315448799	-0.84	inactive
GABRA4 (gamma-aminobutyric acid type A receptor subunit alpha4)	SID315448799	-0.48	inactive
PP2D1 (protein phosphatase 2C like domain containing 1)	SID315462504	-0.45	inactive
PP2D1 (protein phosphatase 2C like domain containing 1)	SID315462504	-0.14	inactive
PP2D1 (protein phosphatase 2C like domain containing 1)	SID315462504	-0.09	inactive
PP2D1 (protein phosphatase 2C like domain containing 1)	SID315462504	0.23	inactive
LPAR6 (lysophosphatidic acid receptor 6)	SID315453869	-1.19	inactive
LPAR6 (lysophosphatidic acid receptor 6)	SID315453869	-0.18	inactive
LPAR6 (lysophosphatidic acid receptor 6)	SID315453869	-1.05	inactive
LPAR6 (lysophosphatidic acid receptor 6)	SID315453869	-0.71	inactive
ACAP1 (ArfGAP with coiled-coil, ankyrin repeat and PH domains 1)	SID315453529	0.11	inactive
ACAP1 (ArfGAP with coiled-coil, ankyrin repeat and PH domains 1)	SID315453529	0.32	inactive
ACAP1 (ArfGAP with coiled-coil, ankyrin repeat and PH domains 1)	SID315453529	-0.16	inactive
ACAP1 (ArfGAP with coiled-coil, ankyrin repeat and PH domains 1)	SID315453529	-0.27	inactive
ALG9 (ALG9 alpha-1,2-mannosyltransferase)	SID315459465	-1.54	active
ALG9 (ALG9 alpha-1,2-mannosyltransferase)	SID315459465	-1.76	active
ALG9 (ALG9 alpha-1,2-mannosyltransferase)	SID315459465	-1.06	inactive
PEMT (phosphatidylethanolamine N-methyltransferase)	SID315454058	0.6	inactive
PEMT (phosphatidylethanolamine N-methyltransferase)	SID315454058	0.88	inactive
PEMT (phosphatidylethanolamine N-methyltransferase)	SID315454058	0.13	inactive
PEMT (phosphatidylethanolamine N-methyltransferase)	SID315454058	-0.34	inactive
IL1RAPL2 (interleukin 1 receptor accessory protein like 2)	SID315455759	-0.87	inactive
IL1RAPL2 (interleukin 1 receptor accessory protein like 2)	SID315455759	1.16	inactive
IL1RAPL2 (interleukin 1 receptor accessory protein like 2)	SID315455759	-0.3	inactive
IL1RAPL2 (interleukin 1 receptor accessory protein like 2)	SID315455759	0.52	inactive
RPL7 (ribosomal protein L7)	SID315451174	0.27	inactive
RPL7 (ribosomal protein L7)	SID315451174	1.24	inactive
RPL7 (ribosomal protein L7)	SID315451174	0.39	inactive
RPL7 (ribosomal protein L7)	SID315451174	0.09	inactive
ALDH4A1 (aldehyde dehydrogenase 4 family member A1)	SID315452723	0.21	inactive
ALDH4A1 (aldehyde dehydrogenase 4 family member A1)	SID315452723	0.05	inactive
ALDH4A1 (aldehyde dehydrogenase 4 family member A1)	SID315452723	0.86	inactive

Targets above whose target name starts with S or s:
gene	PubChem SID	TNF reporter robust z-score	Outcome
SSPN (sarcospan)	SID315452393	-0.98	inactive
SSPN (sarcospan)	SID315452393	-0.65	inactive
SSPN (sarcospan)	SID315452393	-0.49	inactive
SSPN (sarcospan)	SID315452393	0.22	inactive
